Some of the results follow.
Columns and labels:
Assay in all cases: protein microarray (ProtoArray v5.0), streptavidin-Alexa Fluor 647
Conditions in all cases: 3'-biotin; 20 mM Tris (pH 7.5), 5 mM MgCl2, 100 mM KCl, 0.1% Tween-20, A/T-rich and random oligonucleotide blockers; temperature not stated; high values mean tight binding
KLHL20 (human) = system: KLHL20 (human)
KLHL25 (human) = system: KLHL25 (human)
KLHL32 (human) = system: KLHL32 (human)
KLK1 (human) = system: KLK1 (human)
KLK13 (human) = system: KLK13 (human)
KLK2 (human) = system: KLK2 (human)
KLK7 (human) = system: KLK7 (human)
KLK9 (human) = system: KLK9 (human)
KLRD1 (human) = system: KLRD1 (human)
[1] = system: KN motif and ankyrin repeat domain-containing protein 4 (human)
KPNA4 (human) = system: KPNA4 (human)
KRAS (human) = system: KRAS (human)
KRT33B (human) = system: KRT33B (human)
KRT36 (human) = system: KRT36 (human)
KRT8 (human) = system: KRT8 (human)
Kallikrein-1 (human) = system: Kallikrein-1 (human)
Kallikrein-5 (human) = system: Kallikrein-5 (human)
[2] = system: Kelch-like ECH-associated protein 1 (human)
[3] = system: Keratinocyte growth factor (human)
[4] = system: Kidney-associated antigen 1 (human)

Question: With “GGGAGGCTGAGGCAGG [G4-1 biotinylated (PQS2)]” as the sequence, how does the binding signal (KLHL20 (human)) read?
Answer: -0.34 z-score

Question: And the binding signal (KLHL25 (human))?
Answer: -0.307 z-score

Question: And the binding signal (KLHL32 (human))?
Answer: -0.361 z-score

Question: And the binding signal (KLK1 (human))?
Answer: -0.325 z-score

Question: And the binding signal (KLK13 (human))?
Answer: -0.298 z-score

Question: What about the binding signal (KLK2 (human)) of the same sequence?
Answer: -0.323 z-score

Question: What about the binding signal (KLK7 (human)) of the same sequence?
Answer: -0.337 z-score

Question: And the binding signal (KLK9 (human))?
Answer: -0.336 z-score

Question: What about the binding signal (KLRD1 (human)) of the same sequence?
Answer: -0.28 z-score

Question: And the binding signal [1]?
Answer: -0.355 z-score

Question: And the binding signal (KPNA4 (human))?
Answer: -0.319 z-score

Question: And the binding signal (KRAS (human))?
Answer: -0.349 z-score

Question: What about the binding signal (KRT33B (human)) of the same sequence?
Answer: -0.328 z-score

Question: What about the binding signal (KRT36 (human)) of the same sequence?
Answer: -0.317 z-score

Question: And the binding signal (KRT8 (human))?
Answer: -0.355 z-score

Question: What about the binding signal (Kallikrein-1 (human)) of the same sequence?
Answer: -0.311 z-score

Question: What about the binding signal (Kallikrein-5 (human)) of the same sequence?
Answer: -0.32 z-score

Question: And the binding signal [2]?
Answer: -0.344 z-score

Question: And the binding signal [3]?
Answer: -0.336 z-score

Question: And the binding signal [4]?
Answer: -0.337 z-score

Reference: publication PMC5996148
